Assay results taken from article doi:10.1101/2022.09.20.508788.
These are yes or no findings as the source states them, for the method shown. Binding seen in cells or lysates may run through a third protein. These calls come from enrichment with a bait or labelling near it, and not all partners need be listed. Values belong to the molecule of their own block, whether it stands above or below them.

Sequences of proteins named here, by UniProt entry; tags and fusion partners are left off. Residues count along the entry.
UniProt Q95460, 23-341: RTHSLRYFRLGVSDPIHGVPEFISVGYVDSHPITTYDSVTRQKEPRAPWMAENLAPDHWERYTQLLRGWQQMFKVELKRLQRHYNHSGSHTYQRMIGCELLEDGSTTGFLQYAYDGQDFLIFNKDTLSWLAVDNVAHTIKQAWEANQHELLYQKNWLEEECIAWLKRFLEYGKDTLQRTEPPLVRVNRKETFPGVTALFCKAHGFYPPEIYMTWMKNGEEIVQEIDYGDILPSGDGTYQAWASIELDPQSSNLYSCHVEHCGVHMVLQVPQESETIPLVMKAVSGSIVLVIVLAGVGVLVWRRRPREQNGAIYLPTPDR

Target: HA tagged MR1 (Major Histocompatibility Related Protein 1) (UniProt Q95460)
Test: affinity purification with mass spectrometry

binding: binds
Molecule: Calreticulin (CALR) (from UniProt P27797 18-417)

binding: binds
Molecule: SQSTM1/p62 (from UniProt Q13501 1-440)

The next lines start with the molecule.

Molecule: Calnexin (CANX) (from UniProt P27824 21-592)
binding: binds

B1: TMEM59 (protein, UniProt Q9BXS4 36-323)
chain: EAFDSVLGDTASCHRACQLTYPLHTYPKEEELYACQRGCRLFSICQFVDDGIDLNRTKLECESACTEAYSQSDEQYACHLGCQNQLPFAELRQEQLMSLMPKMHLLFPLTLVRSFWSDMMDSAQSFITSSWTFYLQADDGKIVIFQSKPEIQYAPHLEQEPTNLRESSLSKMSYLQMRNSQAHRNFLEDGESDGFLRCLSLNSGWILTTTLVLSVMVLLWICCATVATAVEQYVPSEKLSIYGDLEFMNEQKLNRYPASSLVVVRSKTEDHEEAGPLPTKVNLAHSEI
binding: binds

B2: AUP1 (protein, UniProt Q9Y679 1-410)
chain: MELPSGPGPERLFDSHRLPGDCFLLLVLLLYAPVGFCLLVLRLFLGIHVFLVSCALPDSVLRRFVVRTMCAVLGLVARQEDSGLRDHSVRVLISNHVTPFDHNIVNLLTTCSTPLLNSPPSFVCWSRGFMEMNGRGELVESLKRFCASTRLPPTPLLLFPEEEATNGREGLLRFSSWPFSIQDVVQPLTLQVQRPLVSVTVSDASWVSELLWSLFVPFTVYQVRWLRPVHRQLGEANEEFALRVQQLVAKELGQTGTRLTPADKAEHMKRQRHPRLRPQSAQSSFPPSPGPSPDVQLATLAQRVKEVLPHVPLGVIQRDLAKTGCVDLTITNLLEGAVAFMPEDITKGTQSLPTASASKFPSSGPVTPQPTALTFAKSSWARQESLQERKQALYEYARRRFTERRAQEAD
binding: binds

B3: EDEM1 (protein, UniProt Q92611 1-657)
chain: MQWRALVLGLVLLRLGLHGVLWLVFGLGPSMGFYQRFPLSFGFQRLRSPDGPASPTSGPVGRPGGVSGPSWLQPPGTGAAQSPRKAPRRPGPGMCGPANWGYVLGGRGRGPDEYEKRYSGAFPPQLRAQMRDLARGMFVFGYDNYMAHAFPQDELNPIHCRGRGPDRGDPSNLNINDVLGNYSLTLVDALDTLAIMGNSSEFQKAVKLVINTVSFDKDSTVQVFEATIRVLGSLLSAHRIITDSKQPFGDMTIKDYDNELLYMAHDLAVRLLPAFENTKTGIPYPRVNLKTGVPPDTNNETCTAGAGSLLVEFGILSRLLGDSTFEWVARRAVKALWNLRSNDTGLLGNVVNIQTGHWVGKQSGLGAGLDSFYEYLLKSYILFGEKEDLEMFNAAYQSIQNYLRRGREACNEGEGDPPLYVNVNMFSGQLMNTWIDSLQAFFPGLQVLIGDVEDAICLHAFYYAIWKRYGALPERYNWQLQAPDVLFYPLRPELVESTYLLYQATKNPFYLHVGMDILQSLEKYTKVKCGYATLHHVIDKSTEDRMESFFLSETCKYLYLLFDEDNPVHKSGTRYMFTTEGHIVSVDEHLRELPWKEFFSEEGGQDQGGKSVHRPKPHELKVINSSSNCNRVPDERRYSLPLKSIYMRQIDQMVGLI
binding: binds
